# From PubChem BioAssay AID1347076 (National Center for Advancing Translational Sciences (NCATS), 2019)
# The whole screen tested about 400,000 compounds, of which about 13,000 (3.2%) were called active. Inconclusive means that the source gave no clear call. Such entries were picked first, then a sample of the others. The call rests on the fitted dose curve; in most records, active means well fitted cell-killing curve with a large enough effect; inconclusive means small, poorly fitted or top-dose-only effect, or effect the other way; inactive means flat fitted curve, though single readings scatter. A potency beside an inconclusive call is a rough fit, not a confirmed value.
# Assay: qHTS assay for MDR1-selective chemotherapeutics: Primary screen using the drug-selected MDR subline cells KB-V1; further: nearly all actives have a fitted effect of over 60% in size
# Conditions: KB-V1 MDR cells viability, CellTiter-Glo, 72 h; activity change, negative = cytotoxicity: at 46.1 µM (top of the series)
# Outline: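 KB-V1 MDR subline cells in DMEM (phenol-red free, 10% FBS) exposed to compounds in qHTS concentration series for 72 h at 37 degrees C. Viability read by CellTiter-Glo luminescence; concentration-effect curves fitted after normalization and correction.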
# On the % scale 0 is the no-effect control and ±100 the full control effect; potency means the concentration at half of the fitted maximal effect.
Structure (SMILES),Potency,"activity change, negative = cytotoxicity"
Cc1ccc(Cl)cc1N1CCN(C(=O)C2CCN(S(=O)(=O)c3cccnc3)CC2)CC1,"inconclusive: 29.1 µM [cytotoxic, partial curve, poor fit]",
CCc1ccc(OCCNC(=O)c2ccccc2SCc2ccc(F)cc2)cc1,active: 18.4 µM,
CC(C)CCNC(=O)C(c1cccnc1)N(Cc1ccccc1)C(=O)Cn1nnc2ccccc21 (stereo not drawn),,inconclusive: 3.04%
NC(Cc1ccc(Cl)cc1)c1csc(Nc2ccc(S(N)(=O)=O)cc2)n1 (stereo not drawn),inactive,
CC1(C)CC(=O)C2=C(C1)OC1=C(C(=O)CC(C)(C)C1)C2c1cccc([N+](=O)[O-])c1,inactive,
CN(Cc1cccc(C(F)(F)F)c1)C(=O)[C@H]1O[C@@H](n2ccc(N)nc2=O)[C@H](O)[C@@H]1O,inactive,
O=S(=O)(c1ccccc1)N1CCN(c2cccc(Cl)c2)CC1,inactive,
COc1ccccc1NS(=O)(=O)c1ccc2oc(SCC(=O)N3CCNC3=O)nc2c1,inactive,
Cc1ccc(Nc2nc(N)nc(CN3CCN(Cc4ccc5c(c4)OCO5)CC3)n2)cc1,"inconclusive: 13 µM [cytotoxic, partial curve, poor fit]",
Cc1cccc(N=C2NC(=O)/C(=C/c3cccs3)S2)c1,inactive,
CCOC(=O)CSc1cc(=O)n(C)c2cc(Cl)ccc12,"inconclusive: 23.1 µM [rising, single point]",
CCCCN(C)C(=O)Cn1c(C2CC(=O)N(c3ccc(C)cc3)C2)nc2ccccc21 (stereo not drawn),inactive,
CCOc1ccc(C2c3[nH]c4ccccc4c3CCN2Cc2cccn2-c2ncccn2)cc1 (stereo not drawn),"inconclusive: 13 µM [cytotoxic, partial curve]",
Cc1[nH]c2ccccc2c1C(=O)CSc1nc2ccccc2[nH]1,active: 20.6 µM,
O=S(=O)(NCc1c(Cl)cccc1Oc1ccccc1)c1ccccc1,"inconclusive: 18.4 µM [cytotoxic, single point]",
CC(NC(=O)c1cccc(Cl)c1)C1CC2CCC1C2 (stereo not drawn),"inconclusive: 20.6 µM [cytotoxic, single point]",
COc1ccccc1CN1CCc2c([nH]c3ccccc23)C1,inactive,
CCn1c(=O)c(C(=O)NCCCO)c(O)c2ccccc21,"inconclusive: 25.9 µM [cytotoxic, single point]",
O=c1[nH]c2cc3c(cc2cc1CN(Cc1ccccc1)Cc1nnnn1Cc1ccco1)OCCO3,active: 23.1 µM,
Cc1ccc2c(c1)S/C(=C/c1ccc[n+](C)c1)N2CCO,"inconclusive: 11.6 µM [rising, partial curve, poor fit]",
Cc1nnc(NC(=O)Nc2ccc(Cl)c(Cl)c2)s1,active: 18.4 µM,
COc1ccc(S(=O)(=O)Nc2ccc3oc4c(c3c2)C(=O)CC(C)(C)C4)cc1,active: 18.4 µM,
C=CCn1c(=O)c2ccccc2n2c(SCc3nc4ccccc4s3)nnc12,"inconclusive: 16.4 µM [cytotoxic, single point]",
O=C(C(=O)N1CCN(c2ccccc2)CC1)c1cn(CC(=O)N2CCCCCC2)c2ccccc12,"inconclusive: 3.66 µM [rising, partial curve, poor fit]",
CC(C)(CNC(=O)c1sc2cc(Cl)ccc2c1Cl)N1CCOCC1,"inconclusive: 10.3 µM [cytotoxic, partial curve]",

Structure (SMILES),Potency,"activity change, negative = cytotoxicity"
Nc1c(Cl)ncnc1N/N=C/c1ccc(O)cc1,"inconclusive: 4.11 µM [rising, full curve]",
COC(=O)c1[nH]c2ccccc2c1NC(=O)CN1CCN(c2cccc(Cl)c2)CC1,"inconclusive: 20.6 µM [cytotoxic, partial curve]",
CCCCCCCCN1C(=O)[C@H](CC(=O)N2CCOCC2)C[C@@]2(C(=O)OC)CC(C)(C)CC=C12,"inconclusive: 3.26 µM [cytotoxic, partial curve]",
CCc1nc(CN2CCN(c3ccc(C(F)(F)F)cn3)CC2)c(C)[nH]1,"inconclusive: 5.8 µM [cytotoxic, full curve]",
Cc1ccc(C)c(Nc2ncnc(N)c2[N+](=O)[O-])c1,inactive,
O=S(=O)(Nc1ccc2ccccc2c1)N1CCCCC1,"inconclusive: 7.31 µM [cytotoxic, partial curve]",
COc1cc(C(=O)OCCn2c(=O)c3c(ncn3CCN(C)C)n(C)c2=O)cc(OC)c1OC,"inconclusive: 18.4 µM [cytotoxic, partial curve, poor fit]",
O=C(N/N=C/c1ccc[nH]1)c1ccccc1OCc1ccc(F)cc1,inactive,
O=C(COC(=O)CCCN1C(=O)c2cccc3cccc(c23)C1=O)Nc1ccc(Cl)cc1,inactive,
CCOC(=O)c1cc(C#N)c(SC)nc1C,inactive,
O=C(CSc1nc(O)c(C2CCCCC2)c(=O)[nH]1)Nc1ccc(F)cc1,"inconclusive: 29.1 µM [rising, single point]",
CCOC(=O)C1=CN(Cc2cccc(F)c2)S(=O)(=O)N(C)C1c1cccc(OC)c1 (stereo not drawn),"inconclusive: 23.1 µM [cytotoxic, partial curve]",
O=[N+]([O-])c1ccc(N2CCN(c3ccc(O)cc3)CC2)cn1,"inconclusive: 29.1 µM [cytotoxic, single point]",
CCCn1c2ccccc2c2nnc(SCC(=O)Nc3cc(C)on3)nc21,"inconclusive: 1.64 µM [cytotoxic, full curve]",
CC1Cc2cc(S(=O)(=O)N3CCC(C(=O)N(C)Cc4ccco4)CC3)ccc2N1C(=O)C1CCC1 (stereo not drawn),inactive,
O=C(Nc1nnc(-c2ccco2)o1)c1ccc(Cl)s1,inactive,
CCc1ccc(-c2csc(-c3c[nH]c4ccccc34)n2)cc1,"inconclusive: 29.1 µM [cytotoxic, single point]",
CCN(CC)CCOc1cccc(C(C)C)c1,inactive,
C=CC(=O)N(CCC)C(c1ccccc1)c1ccccc1OC (stereo not drawn),inactive,
CS(=O)(=O)N(CC(=O)Nc1ccc(Br)cc1)c1ccccc1Br,"inconclusive: 20.6 µM [cytotoxic, single point]",
O=C(O)CCC(=O)NCCc1cccc(Cl)c1,"inconclusive: 2.91 µM [rising, partial curve, poor fit]",
Cc1ccccc1Cn1cc(CCC(=O)N2CCOCC2)c2ccccc21,,inconclusive: -30.6% [cytotoxic]
Cc1cc(C(=O)NNC(=O)C(CCC(N)=O)NS(=O)(=O)c2ccc(Cl)cc2)c(C)o1 (stereo not drawn),"inconclusive: 13 µM [rising, partial curve, poor fit]",
Cc1cccc(C)c1N=C1NN=C(c2ccccc2F)CS1,active: 18.4 µM,
COc1cc(SC)ccc1C(=O)NCCOc1c(C)cc(C)cc1C,active: 20.6 µM,

Structure (SMILES),Potency,"activity change, negative = cytotoxicity"
CCCSc1nc(=O)n2cccc(C)c2n1,"inconclusive: 18.4 µM [cytotoxic, partial curve]",
CCOC(=O)c1cc2c(=O)n3ccccc3nc2n(CCCOC)c1=NC(C)=O,inactive,
Cc1csc(NC(=O)/C=C/c2ccc3c(c2)OCO3)n1,"inconclusive: 29.1 µM [cytotoxic, single point]",
O=C(N/N=C/c1ccc2c(c1)OCO2)C1COc2ccccc2O1 (stereo not drawn),active: 10.3 µM,
FC(F)(F)c1cc(CCN2C(=S)NC[C@@H]2CC2CCCCC2)cc(C(F)(F)F)c1,"inconclusive: 13 µM [cytotoxic, partial curve]",
Cc1occc1C(=O)NNC(=S)NCC(C)C,"inconclusive: 35.5 µM [cytotoxic, single point]",
Cc1ccc(CN(C(=O)COc2ccc(Cl)cc2)c2ccccn2)o1,inactive,
CC1(C)CC2CC(C)(CN2C(=O)COC(=O)c2cncc(Br)c2)C1 (stereo not drawn),"inconclusive: 29.1 µM [rising, single point]",
Cc1cccc(CN2CCCC(C(=O)c3ccc4c5c(cccc35)CC4)C2)n1 (stereo not drawn),"inconclusive: 2.59 µM [cytotoxic, partial curve, poor fit]",
O=C(O)CC(NCc1ccco1)C(=O)OCC1CCCO1 (stereo not drawn),"inconclusive: 23.1 µM [rising, partial curve, poor fit]",
COc1ccc(NC(=O)c2cc(S(=O)(=O)N3CCc4ccccc43)cn2C)cc1OC,inactive,
COc1ccc(N2CCN(C(=O)c3cc(=O)c4cc(C)c(C)cc4o3)CC2)cc1,"inconclusive: 2.59 µM [cytotoxic, full curve]",
O=C(NCc1ccncc1)C1CCCN(S(=O)(=O)c2cc(Cl)ccc2Cl)C1 (stereo not drawn),"inconclusive: 18.4 µM [cytotoxic, single point]",
CC(=O)c1c(N2CCN(C)CC2)nc(=S)n(-c2cc(C)ccc2C)c1C,inactive,
COc1cc(C(=O)N(Cc2ccco2)Cc2cc3ccccc3[nH]c2=O)cc(OC)c1OC,"inconclusive: 20.6 µM [cytotoxic, partial curve, poor fit]",
CSc1nsc(SCC(=O)N2CCCCC2)n1,inactive,
COc1cccc(-c2ccc3c(c2)N(Cc2ccccc2OC)C(=O)C(C)S3)c1 (stereo not drawn),"inconclusive: 29.1 µM [cytotoxic, single point]",
Cc1ccc2c(c1)c1c3n2CCN(CCC#N)C3CCC1 (stereo not drawn),active: 18.4 µM,
CC1(c2nnc(-c3cccc(Cl)c3)o2)CC(c2ccccc2F)=NO1 (stereo not drawn),inactive,
CC(=O)c1ccc(NC(=O)/C(C#N)=C/c2ccncc2)cc1,"inconclusive: 29.1 µM [rising, single point]",
CN(C)/C=C/C(=O)c1ccc2noc(-c3ccccc3)c2c1,"inconclusive: 29.1 µM [cytotoxic, single point]",
CC1CCN(S(=O)(=O)c2ccc3c(ccc(=O)n3CC(=O)Nc3ccc(C(C)C)cc3)c2)CC1,"inconclusive: 2.91 µM [cytotoxic, partial curve, poor fit]",
Cc1ccc(-c2nc3ncccn3c2N)cc1,"inconclusive: 20.6 µM [cytotoxic, partial curve, poor fit]",

# Some of the entries above in a different format.
Structure (SMILES) | Potency | activity change, negative = cytotoxicity
Cc1occc1C(=O)NNC(=S)NCC(C)C | inconclusive: 35.5 µM [cytotoxic, single point] | 
Cc1ccc(CN(C(=O)COc2ccc(Cl)cc2)c2ccccn2)o1 | inactive | 
CC1(C)CC2CC(C)(CN2C(=O)COC(=O)c2cncc(Br)c2)C1 (stereo not drawn) | inconclusive: 29.1 µM [rising, single point] | 
